From US7919104B2, “Functional epitopes of Streptococcus pneumoniae PsaA antigen and uses thereof” (priority 2005, dated 2011)
Some results were stated once for a whole list of compounds, not compound by compound.

System: Detroit 562 cells
Assay: Adherence of rPsaA- or peptide-coated fluospheres (beads) to Detroit 562 cells
Type: cell-based, human
Settings: fluospheres at a 1:50 dilution
Procedure: Carboxylate-modified fluorospheres (Molecular Probes™, […]) coated with either recombinant PsaA (rPsaA) or PsaA synthetic peptide (P4) were evaluated for their adherence to Detroit 562 NP cells. Four different batches of PsaA beads were generated by varying the concentration of the protein solution used to coat the beads (0.9 mg/ml, 0.53 mg/ml, 5.3 μg/ml and 0.53 μg/ml). P4 and Glycine control beads were generated by using a peptide solution (0.9 mg/ml). Protein concentrations were confirmed by the Bradford test (Sigma). PsaA and peptide beads were compared at similar inocula (1640±210 beads per well) in adherence and adherence competition assays (measured as mean fluorescent units (FU±SE)).
Recombinant PsaA protein or synthetic peptides were covalently bound to carboxylate-modified FluoSpheres (Molecular Probes, Eugene, Oreg.) (505/515 nm range, yellow, 1 μm in diameter). […] The 2% fluosphere stock was vortexed for 2 minutes at full speed. A 250-μl aliquot was sonicated for 5 minutes to break clumps. The sonicated fluospheres were washed 3 times by centrifugation at 10,000 rpm for 10 minutes in 250 μl MES buffer, pH 6.0 (Molecular Probes). The negative charge in the carboxylate-modified fluospheres was activated by adding 50 μl of EDAC solution (100 mg/ml, Molecular Probes) to the washed fluospheres resuspended in 200 μl MES. The fluospheres were incubated for 30 minutes RT with gentle rotation. A 250-μl volume of rPsaA (1 mg/ml) or peptide (2 mg/ml) resuspended in MES buffer was added to each fluosphere pellet. […] Fluospheres were counted by limiting dilution using a fluorometer (FLX-600, BioTek) with 485/520 nm excitation/emission wavelength and comparison to a calibration curve previously generated against hemacytometer counts.
Confluent monolayers of Detroit 562 cells grown in 96-well tissue culture plates for 6 days were washed once with 130 μl/well of PBS buffer+0.5% BSA (Sigma cat #A2153, Fraction V purified by alcohol precipitation). […] The plate was allowed to dry before reading in the fluorometer (485/520 nm). […]

Row | Molecule | adherence signal of coated fluospheres (overflow)
1 | LFVESSVKRRPMKTVSQDTNIPIYAQIF [P4, non-branched synthetic peptide, PsaA amino acid residues 251 to 278 with DD changed to KR] | more than 100,000 FU
2 | TVSRVPWTAWAFHGY [P1, synthetic peptide identified by phage display, reference compound] | more than 100,000 FU
3 | rPsaA: purified recombinant pneumococcal surface adhesin A, non-lipidated, donated by Aventis-Pasteur (protein) CASGKKDTTSGQKLKVVATNSIIADITKNIAGDKIDLHSIVPIGQDPHEYEPLPEDVKKTSEADLIFYNGINLETGGNAWFTKLVENAKKTENKDYFAVSDGVDVIYLEGQNEKGKEDPHAWLNLENGIIFAKNIAKQLSAKDPNNKEFYEKNLKEYTDKLDKLDKESKDKFNKIPAEKKLIVTSEGAFKYFSKAYGVPSAYIWEINTEEEGTPEQIKTLVEKLRQTKVPSLFVESSVDDRPMKTVSQDTNIPIYAQIFTDSIAEQGKEGDSYYSMMKYNLDKIAEGLAK | more than 100,000 FU
